Results published in article PMC8192922.
No constants are given. Whether binding was seen depends on the method and setting. Binding seen in cells or lysates may run through a third protein. These calls come from enrichment with a bait or labelling near it, and not all partners need be listed.

By UniProt entry, the sequences of proteins in these tests, tags left out. Where a name states a change or a piece, a line headed by the entry shows the natural chain unless it says otherwise.
UniProt Q15554: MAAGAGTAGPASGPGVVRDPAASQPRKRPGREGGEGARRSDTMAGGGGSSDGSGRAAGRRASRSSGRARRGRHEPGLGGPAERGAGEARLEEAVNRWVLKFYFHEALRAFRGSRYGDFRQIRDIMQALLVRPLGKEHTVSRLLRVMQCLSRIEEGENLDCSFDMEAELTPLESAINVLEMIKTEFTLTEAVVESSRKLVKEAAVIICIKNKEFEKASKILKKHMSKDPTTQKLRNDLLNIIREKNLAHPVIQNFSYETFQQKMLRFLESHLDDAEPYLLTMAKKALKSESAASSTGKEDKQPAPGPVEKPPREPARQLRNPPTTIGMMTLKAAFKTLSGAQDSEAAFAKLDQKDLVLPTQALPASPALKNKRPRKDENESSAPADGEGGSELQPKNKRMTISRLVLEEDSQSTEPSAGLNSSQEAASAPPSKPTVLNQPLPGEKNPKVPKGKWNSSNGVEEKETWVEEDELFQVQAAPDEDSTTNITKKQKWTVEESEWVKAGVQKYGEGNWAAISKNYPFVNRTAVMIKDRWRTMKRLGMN
UniProt Q99729: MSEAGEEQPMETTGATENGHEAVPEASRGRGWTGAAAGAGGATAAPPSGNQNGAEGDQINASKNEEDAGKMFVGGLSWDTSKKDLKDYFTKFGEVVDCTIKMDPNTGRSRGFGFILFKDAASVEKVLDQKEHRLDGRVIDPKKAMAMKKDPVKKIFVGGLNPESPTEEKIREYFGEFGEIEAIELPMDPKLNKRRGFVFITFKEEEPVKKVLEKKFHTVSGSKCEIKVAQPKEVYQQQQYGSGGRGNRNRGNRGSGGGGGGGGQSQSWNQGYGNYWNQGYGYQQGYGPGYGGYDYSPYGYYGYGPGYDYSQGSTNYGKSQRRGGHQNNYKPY
UniProt P35637: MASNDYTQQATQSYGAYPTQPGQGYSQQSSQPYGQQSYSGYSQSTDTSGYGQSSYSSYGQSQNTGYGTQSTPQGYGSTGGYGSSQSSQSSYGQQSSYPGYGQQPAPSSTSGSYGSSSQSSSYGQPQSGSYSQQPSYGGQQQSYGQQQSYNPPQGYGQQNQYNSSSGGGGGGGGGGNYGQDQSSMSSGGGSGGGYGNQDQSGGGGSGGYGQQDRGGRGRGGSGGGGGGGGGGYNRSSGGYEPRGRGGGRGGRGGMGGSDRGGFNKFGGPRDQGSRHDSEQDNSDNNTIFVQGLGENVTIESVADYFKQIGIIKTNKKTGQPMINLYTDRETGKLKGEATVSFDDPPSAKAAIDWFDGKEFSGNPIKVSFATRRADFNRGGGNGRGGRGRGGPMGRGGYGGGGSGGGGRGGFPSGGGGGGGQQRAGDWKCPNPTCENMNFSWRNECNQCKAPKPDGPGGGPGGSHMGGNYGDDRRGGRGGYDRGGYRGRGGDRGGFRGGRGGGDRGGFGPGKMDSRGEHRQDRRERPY

Tests used:
Experiment in all cases: affinity purification with mass spectrometry; pulldowns of endogenous BRCA1 and TRF2 from chromatin fractions of HME cells (inducible shScramble or shBRCA1), on-bead trypsin digest, nanoLC-MS; IgG background subtracted
[1] = target: BRCA1 (human (endogenous in HeLa, HME and T98G)) (UniProt P38398)
[2] = target: TRF2 (human (endogenous in HeLa, HME and T98G)) (UniProt Q15554)
[3] = target: BRCA1 (human (endogenous in HeLa, HME and T98G)), P38398; conditions: remark: other sources report otherwise

| binding [1] | binding [2] | binding [3] | Molecule |
| --- | --- | --- | --- |
| binds | binds |  | hnRNPAB (from UniProt Q99729 1-332) |
| binds | binds |  | FUS (from UniProt P35637 1-526) |
|  |  | binds | XRN2, Q9H0D6 1-950 (protein) MGVPAFFRWLSRKYPSIIVNCVEEKPKECNGVKIPVDASKPNPNDVEFDNLYLDMNGIIHPCTHPEDKPAPKNEDEMMVAIFEYIDRLFSIVRPRRLLYMAIDGVAPRAKMNQQRSRRFRASKEGMEAAVEKQRVREEILAKGGFLPPEEIKERFDSNCITPGTEFMDNLAKCLRYYIADRLNNDPGWKNLTVILSDASAPGEGEHKIMDYIRRQRAQPNHDPNTHHCLCGADADLIMLGLATHEPNFTIIREEFKPNKPKPCGLCNQFGHEVKDCEGLPREKKGKHDELADSLPCAEGEFIFLRLNVLREYLERELTMASLPFTFDVERSIDDWVFMCFFVGNDFLPHLPSLEIRENAIDRLVNIYKNVVHKTGGYLTESGYVNLQRVQMIMLAVGEVEDSIFKKRKDDEDSFRRRQKEKRKRMKRDQPAFTPSGILTPHALGSRNSPGSQVASNPRQAAYEMRMQNNSSPSISPNTSFTSDGSPSPLGGIKRKAEDSDSEPEPEDNVRLWEAGWKQRYYKNKFDVDAADEKFRRKVVQSYVEGLCWVLRYYYQGCASWKWYYPFHYAPFASDFEGIADMPSDFEKGTKPFKPLEQLMGVFPAASGNFLPPSWRKLMSDPDSSIIDFYPEDFAIDLNGKKYAWQGVALLPFVDERRLRAALEEVYPDLTPEETRRNSLGGDVLFVGKHHPLHDFILELYQTGSTEPVEVPPELCHGIQGKFSLDEEAILPDQIVCSPVPMLRDLTQNTVVSINFKDPQFAEDYIFKAVMLPGARKPAAVLKPSDWEKSSNGRQWKPQLGFNRDRRPVHLDQAAFRTLGHVMPRGSGTGIYSNAAPPPVTYQGNLYRPLLRGQAQIPKLMSNMRPQDSWRGPPPLFQQQRFDRGVGAEPLLPWNRMLQTQNAAFQPNQYQMLAGPGGYPPRRDDRGGRQGYPREGRKYPLPPPSGRYNWN |
